From patent publication US4470926A (priority 1980, dated 1984)

Assay: general procedure: solution-phase peptide synthesis; mixed anhydride (stepwise); dicyclohexylcarbodiimide/1-hydroxybenzotriazole (fra)
Conditions: coupling step

Going from Ddz-(7-28)-OBzl to Ddz-Ala-Ala-Val-Asp(OBu^t)-OBzl, the step yield rises from 67% to 70%.

Going from “Ddz-Asp(OBu^t)-Ala-Ala-Val-Asp(OBu^t)-OBzl” to “Ddz-Asp(OBu^t)-Leu-Lys(Z)-Glu(OBu^t)-Lys(Z)-OMe”, the step yield falls from 85% to 84%.

Going from “Ddz-Glu(OBu^t)-Ala-Glu(OBu^t)-Asn(Mbh)-IBzl” to Ddz-Glu(OBu^t)-Val-Val-Glu(OBu^t)-OMe, the step yield rises from 78% to 94%.

Compared with Ddz-Leu-Lys(Z)-Glu(OBu^t)-Lys(Z)-OMe, “Ddz-Lys(Z)-Glu(OBu^t)-Val-Val-Glu(OBu^t)-OMe” is higher in step yield: 77% for the first, 99% for the second.

Going from “Ddz-Ser(Bu^t)-Glu(OBu^t)-Ile-Thr(Bu^t)-OBzl” to “Ddz-Ser(Bu^t)-Ser(Bu^t)-Glu(OBu^t)-Ile-Thr(Bu^t)-OBzl”, the step yield falls from 83% to 78%.

Going from “Ddz-Thr(Bu^t)-Lys(Z)-Asp(OBu^t)-Leu-Lys(Z)-Glu(OBu^t)-Lys(Z)-OMe” to “Ddz-Thr(Bu^t)-Ser(Bu^t)-Ser(Bu^t)-Glu-(OBu^t)-Ile-Thr(Bu^t)-OBzl”, the step yield rises from 56% to 97%.

For “Ddz-Lys(Z)-Asp(OBu^6)-Leu-Lys(Z)-Glu-(OBu^t)-Lys(Z)-OMe”, the step yield was “about 100%”.

Same assay, conditions: late stage modification step

First: Ddz-(7-12)-OH
Second: Ddz-(20-24)-OH
The step yield of the first is lower: 57% for the first, 76% for the second.
